These results are taken from article PMC11623952.

Chains of the proteins cited; added tags and fusions are not shown. Residues count along the entry.
UniProt Q9Y6C2, residues 22-1016: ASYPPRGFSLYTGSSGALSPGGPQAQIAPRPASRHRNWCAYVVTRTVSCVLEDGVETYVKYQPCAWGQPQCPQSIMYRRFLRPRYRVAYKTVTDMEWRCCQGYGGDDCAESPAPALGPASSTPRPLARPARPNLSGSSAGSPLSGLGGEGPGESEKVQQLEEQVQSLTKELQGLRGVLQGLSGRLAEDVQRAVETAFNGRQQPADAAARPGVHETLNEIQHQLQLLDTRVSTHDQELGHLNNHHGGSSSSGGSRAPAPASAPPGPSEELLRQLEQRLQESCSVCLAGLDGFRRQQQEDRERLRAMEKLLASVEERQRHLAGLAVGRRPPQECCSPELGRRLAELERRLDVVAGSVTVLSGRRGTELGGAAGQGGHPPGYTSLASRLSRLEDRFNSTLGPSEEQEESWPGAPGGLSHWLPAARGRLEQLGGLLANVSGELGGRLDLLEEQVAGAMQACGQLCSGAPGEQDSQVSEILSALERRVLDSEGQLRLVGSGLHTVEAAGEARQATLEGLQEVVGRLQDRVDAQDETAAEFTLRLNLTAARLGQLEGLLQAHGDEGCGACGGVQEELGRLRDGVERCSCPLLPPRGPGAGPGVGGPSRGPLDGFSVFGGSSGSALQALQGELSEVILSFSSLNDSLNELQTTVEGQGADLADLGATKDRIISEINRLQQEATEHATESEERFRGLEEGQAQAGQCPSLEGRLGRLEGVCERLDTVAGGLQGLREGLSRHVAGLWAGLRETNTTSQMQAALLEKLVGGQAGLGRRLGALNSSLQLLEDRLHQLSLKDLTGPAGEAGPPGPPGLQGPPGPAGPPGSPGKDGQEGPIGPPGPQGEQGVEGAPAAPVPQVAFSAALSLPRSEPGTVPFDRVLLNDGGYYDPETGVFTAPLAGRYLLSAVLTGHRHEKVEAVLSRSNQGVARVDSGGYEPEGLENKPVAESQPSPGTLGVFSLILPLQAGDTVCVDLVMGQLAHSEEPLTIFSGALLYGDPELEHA
UniProt O43426: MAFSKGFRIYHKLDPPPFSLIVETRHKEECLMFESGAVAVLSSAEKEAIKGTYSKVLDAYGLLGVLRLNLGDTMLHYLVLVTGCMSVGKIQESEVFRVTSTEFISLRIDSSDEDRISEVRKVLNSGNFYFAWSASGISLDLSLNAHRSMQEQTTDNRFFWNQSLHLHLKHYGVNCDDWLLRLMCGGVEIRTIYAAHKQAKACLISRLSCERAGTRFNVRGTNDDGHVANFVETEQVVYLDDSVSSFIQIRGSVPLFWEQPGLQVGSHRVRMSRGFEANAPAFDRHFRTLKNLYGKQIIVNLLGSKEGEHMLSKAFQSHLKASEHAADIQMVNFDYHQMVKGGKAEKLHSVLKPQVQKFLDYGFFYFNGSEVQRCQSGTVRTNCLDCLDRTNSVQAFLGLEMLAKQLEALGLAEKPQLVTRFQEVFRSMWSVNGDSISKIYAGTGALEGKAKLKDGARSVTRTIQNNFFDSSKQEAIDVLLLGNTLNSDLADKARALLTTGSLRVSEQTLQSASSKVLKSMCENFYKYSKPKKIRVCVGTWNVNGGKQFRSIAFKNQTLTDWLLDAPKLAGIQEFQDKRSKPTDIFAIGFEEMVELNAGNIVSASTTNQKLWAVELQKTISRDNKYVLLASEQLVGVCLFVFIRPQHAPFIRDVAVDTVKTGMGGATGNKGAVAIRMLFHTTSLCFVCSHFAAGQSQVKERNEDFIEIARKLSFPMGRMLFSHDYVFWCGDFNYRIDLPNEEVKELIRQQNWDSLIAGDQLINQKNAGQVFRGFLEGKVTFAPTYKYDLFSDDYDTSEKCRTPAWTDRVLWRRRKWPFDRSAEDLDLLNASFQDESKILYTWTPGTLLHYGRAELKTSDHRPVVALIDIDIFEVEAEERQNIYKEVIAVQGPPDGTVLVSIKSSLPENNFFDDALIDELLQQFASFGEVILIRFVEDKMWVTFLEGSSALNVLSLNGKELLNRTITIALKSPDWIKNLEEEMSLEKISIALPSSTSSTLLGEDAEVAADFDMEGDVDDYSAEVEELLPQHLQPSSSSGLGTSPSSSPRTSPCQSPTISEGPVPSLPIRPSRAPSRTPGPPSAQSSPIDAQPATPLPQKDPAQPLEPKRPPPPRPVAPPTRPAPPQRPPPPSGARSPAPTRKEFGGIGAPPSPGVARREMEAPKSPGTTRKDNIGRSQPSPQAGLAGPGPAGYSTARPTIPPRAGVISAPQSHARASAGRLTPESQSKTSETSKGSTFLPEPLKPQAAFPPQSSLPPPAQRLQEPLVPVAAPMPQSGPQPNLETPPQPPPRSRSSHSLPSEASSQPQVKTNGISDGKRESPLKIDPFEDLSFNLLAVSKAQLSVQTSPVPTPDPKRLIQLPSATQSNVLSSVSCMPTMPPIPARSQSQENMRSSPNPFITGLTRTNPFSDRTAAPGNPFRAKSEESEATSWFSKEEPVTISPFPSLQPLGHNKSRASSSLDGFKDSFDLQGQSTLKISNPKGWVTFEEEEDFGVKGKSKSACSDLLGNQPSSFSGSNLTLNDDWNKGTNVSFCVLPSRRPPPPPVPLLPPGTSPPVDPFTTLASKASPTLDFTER
UniProt O43707: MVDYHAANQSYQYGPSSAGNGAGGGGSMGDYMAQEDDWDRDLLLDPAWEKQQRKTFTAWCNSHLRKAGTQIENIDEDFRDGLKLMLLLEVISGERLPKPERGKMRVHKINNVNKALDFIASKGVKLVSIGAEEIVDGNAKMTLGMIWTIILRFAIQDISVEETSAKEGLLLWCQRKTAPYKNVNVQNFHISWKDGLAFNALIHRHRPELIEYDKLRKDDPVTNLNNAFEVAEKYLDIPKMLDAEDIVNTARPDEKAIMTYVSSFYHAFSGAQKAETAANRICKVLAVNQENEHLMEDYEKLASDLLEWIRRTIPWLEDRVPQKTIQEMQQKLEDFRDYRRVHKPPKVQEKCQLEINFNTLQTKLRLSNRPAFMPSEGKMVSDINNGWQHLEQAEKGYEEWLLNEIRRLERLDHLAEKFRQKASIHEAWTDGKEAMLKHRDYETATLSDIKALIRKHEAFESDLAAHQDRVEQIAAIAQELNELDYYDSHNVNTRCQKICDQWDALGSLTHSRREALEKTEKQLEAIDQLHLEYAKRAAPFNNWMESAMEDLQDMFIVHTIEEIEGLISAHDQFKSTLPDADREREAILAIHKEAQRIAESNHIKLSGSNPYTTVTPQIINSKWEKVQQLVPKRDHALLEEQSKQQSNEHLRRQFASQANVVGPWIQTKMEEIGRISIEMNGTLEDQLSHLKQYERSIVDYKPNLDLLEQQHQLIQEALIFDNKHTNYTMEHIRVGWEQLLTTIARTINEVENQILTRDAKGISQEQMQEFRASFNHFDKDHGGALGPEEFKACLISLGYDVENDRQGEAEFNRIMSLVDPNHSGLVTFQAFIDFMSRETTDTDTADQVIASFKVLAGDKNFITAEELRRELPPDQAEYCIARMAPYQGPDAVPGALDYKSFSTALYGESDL
UniProt P29279, residues 27-349: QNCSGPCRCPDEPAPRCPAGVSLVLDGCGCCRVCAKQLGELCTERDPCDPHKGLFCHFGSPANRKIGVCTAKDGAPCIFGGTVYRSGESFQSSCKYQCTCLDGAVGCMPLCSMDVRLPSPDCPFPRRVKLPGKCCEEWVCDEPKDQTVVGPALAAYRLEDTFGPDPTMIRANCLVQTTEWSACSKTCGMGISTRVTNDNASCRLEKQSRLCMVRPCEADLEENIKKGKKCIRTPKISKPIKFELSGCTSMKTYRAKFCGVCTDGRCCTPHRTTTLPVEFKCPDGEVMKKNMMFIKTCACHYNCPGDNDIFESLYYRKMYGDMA
UniProt Q27J81: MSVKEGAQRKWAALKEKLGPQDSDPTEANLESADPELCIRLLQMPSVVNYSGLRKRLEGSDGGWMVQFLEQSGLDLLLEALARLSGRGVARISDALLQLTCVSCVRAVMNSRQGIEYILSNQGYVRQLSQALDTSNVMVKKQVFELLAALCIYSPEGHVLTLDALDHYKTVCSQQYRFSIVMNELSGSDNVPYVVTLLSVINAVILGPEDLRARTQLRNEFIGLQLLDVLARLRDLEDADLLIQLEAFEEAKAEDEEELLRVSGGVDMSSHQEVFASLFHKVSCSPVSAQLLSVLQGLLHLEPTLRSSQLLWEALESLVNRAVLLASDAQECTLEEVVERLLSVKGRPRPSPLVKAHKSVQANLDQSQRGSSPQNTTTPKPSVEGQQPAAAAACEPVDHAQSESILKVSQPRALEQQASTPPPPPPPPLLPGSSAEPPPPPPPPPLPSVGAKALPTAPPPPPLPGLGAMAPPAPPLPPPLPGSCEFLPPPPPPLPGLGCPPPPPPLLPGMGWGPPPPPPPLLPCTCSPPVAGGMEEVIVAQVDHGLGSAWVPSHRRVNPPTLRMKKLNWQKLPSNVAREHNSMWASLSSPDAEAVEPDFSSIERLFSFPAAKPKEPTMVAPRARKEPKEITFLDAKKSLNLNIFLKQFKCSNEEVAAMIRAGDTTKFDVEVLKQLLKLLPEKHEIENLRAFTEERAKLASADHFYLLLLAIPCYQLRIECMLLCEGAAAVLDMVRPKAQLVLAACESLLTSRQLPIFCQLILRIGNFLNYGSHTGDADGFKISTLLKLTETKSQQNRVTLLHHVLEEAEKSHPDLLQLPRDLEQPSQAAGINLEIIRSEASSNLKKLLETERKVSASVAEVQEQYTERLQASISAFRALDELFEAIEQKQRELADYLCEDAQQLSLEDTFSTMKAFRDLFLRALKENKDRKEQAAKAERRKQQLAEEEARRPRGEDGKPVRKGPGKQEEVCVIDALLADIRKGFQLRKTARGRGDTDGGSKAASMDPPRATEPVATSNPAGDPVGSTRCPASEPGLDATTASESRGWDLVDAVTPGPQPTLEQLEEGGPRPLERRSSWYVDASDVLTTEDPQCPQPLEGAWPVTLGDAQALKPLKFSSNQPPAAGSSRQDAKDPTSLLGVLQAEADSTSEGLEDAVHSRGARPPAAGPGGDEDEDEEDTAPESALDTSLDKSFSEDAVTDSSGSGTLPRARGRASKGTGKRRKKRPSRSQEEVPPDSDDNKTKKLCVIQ
UniProt Q16643: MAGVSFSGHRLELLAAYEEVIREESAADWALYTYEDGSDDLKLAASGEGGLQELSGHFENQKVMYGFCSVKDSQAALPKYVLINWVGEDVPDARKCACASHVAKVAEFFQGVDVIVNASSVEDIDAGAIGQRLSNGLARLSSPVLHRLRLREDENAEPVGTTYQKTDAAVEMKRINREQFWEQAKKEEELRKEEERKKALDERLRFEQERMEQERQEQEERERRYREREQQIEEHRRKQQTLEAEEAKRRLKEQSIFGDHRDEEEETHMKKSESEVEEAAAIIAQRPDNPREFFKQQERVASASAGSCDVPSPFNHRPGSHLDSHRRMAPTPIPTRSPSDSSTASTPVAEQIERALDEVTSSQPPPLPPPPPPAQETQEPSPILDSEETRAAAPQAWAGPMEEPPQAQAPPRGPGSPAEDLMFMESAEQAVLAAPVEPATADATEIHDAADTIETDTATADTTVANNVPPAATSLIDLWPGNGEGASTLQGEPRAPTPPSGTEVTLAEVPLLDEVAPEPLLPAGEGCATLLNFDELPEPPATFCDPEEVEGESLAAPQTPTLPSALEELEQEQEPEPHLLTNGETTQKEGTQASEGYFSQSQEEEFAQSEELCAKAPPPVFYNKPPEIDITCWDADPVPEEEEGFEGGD
UniProt Q13418: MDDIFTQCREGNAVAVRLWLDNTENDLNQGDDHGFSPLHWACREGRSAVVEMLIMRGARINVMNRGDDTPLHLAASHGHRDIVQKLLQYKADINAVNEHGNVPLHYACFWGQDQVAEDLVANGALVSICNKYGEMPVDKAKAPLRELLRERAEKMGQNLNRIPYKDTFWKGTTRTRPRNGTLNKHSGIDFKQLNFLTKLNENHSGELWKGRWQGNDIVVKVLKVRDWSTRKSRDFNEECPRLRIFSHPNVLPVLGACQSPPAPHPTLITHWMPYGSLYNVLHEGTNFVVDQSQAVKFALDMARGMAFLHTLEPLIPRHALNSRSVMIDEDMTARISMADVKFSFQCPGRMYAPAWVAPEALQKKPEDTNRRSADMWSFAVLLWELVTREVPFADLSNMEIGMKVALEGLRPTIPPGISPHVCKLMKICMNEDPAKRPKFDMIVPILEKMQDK

Results are given in words; binding and its absence hold for the method and conditions named. Binding seen in cells or lysates may run through a third protein. Here binding means that the protein was enriched with, or labelled near, the bait; the list need not be complete.

This assay deals with T1, septin-9 (human (endogenous in TM cells)) (UniProt Q9UHD8).
T1 sequence: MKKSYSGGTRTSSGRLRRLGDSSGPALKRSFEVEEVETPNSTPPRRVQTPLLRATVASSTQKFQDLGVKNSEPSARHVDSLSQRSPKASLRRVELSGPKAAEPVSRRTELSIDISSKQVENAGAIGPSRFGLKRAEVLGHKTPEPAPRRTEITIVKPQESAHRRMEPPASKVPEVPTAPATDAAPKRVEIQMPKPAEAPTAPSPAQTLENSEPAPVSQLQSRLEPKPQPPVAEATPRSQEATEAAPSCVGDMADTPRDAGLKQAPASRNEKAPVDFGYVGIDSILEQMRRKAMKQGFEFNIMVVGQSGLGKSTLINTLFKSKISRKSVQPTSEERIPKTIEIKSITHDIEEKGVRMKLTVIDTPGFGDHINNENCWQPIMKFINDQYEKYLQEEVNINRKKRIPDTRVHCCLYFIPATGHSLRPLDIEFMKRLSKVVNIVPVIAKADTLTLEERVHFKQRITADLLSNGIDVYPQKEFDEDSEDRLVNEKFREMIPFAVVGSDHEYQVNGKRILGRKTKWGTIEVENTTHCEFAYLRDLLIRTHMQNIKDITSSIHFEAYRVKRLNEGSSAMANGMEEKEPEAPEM
The assay is described as follows: affinity purification with mass spectrometry; immunoprecipitation with an anti-SEPT9 polyclonal antibody on Dynabeads Protein A from human TM cell lysates (2 strains), IgG control; tryptic digests read by LC-MS (Q Exactive HF Orbitrap).

Take EMILIN-1 (from UniProt Q9Y6C2 22-1016): the binding entry is recorded as “binds”. Then “cytoskeleton-associated protein 5 (from UniProt Q14008 1-2032)”, with “binds”; and “synaptojanin-1 (from UniProt O43426 1-1573)”, with “binds”. For FERM2 (from UniProt Q96AC1 1-680), the binding entry is given as “binds”. With α-actinin 4 (from UniProt O43707 1-911), the binding result is on record as “binds”.

For “latent TGF-β-binding protein 2 (from UniProt Q14767 36-1821)”, the binding entry is given as “binds”.

Regarding myosin-10 (from UniProt P35580 1-1976), the binding entry was “binds”. Then “LIM domain and actin-binding protein 1 (from UniProt Q9UHB6 1-759)”, with “binds”. As for “microtubule-actin cross-linking factor 1 (from UniProt Q9UPN3 1-7388)”, the entry is “binds”; as for “CCN family member 2 (from UniProt P29279 27-349)”, “binds”. Then “inverted formin-2 (from UniProt Q27J81 1-1249)”, with “binds”; and drebrin (from UniProt Q16643 1-649), with “binds”. “integrin-linked protein kinase (from UniProt Q13418 1-452)”: the binding entry is given as “binds”. As for “cytoplasmic FMR1-interacting protein (human (endogenous in TM cells))”, the entry is “binds”.

B1: phostensin (protein, UniProt Q6NYC8 1-613)
chain: MATIPDWKLQLLARRRQEEASVRGREKAERERLSQMPAWKRGLLERRRAKLGLSPGEPSPVLGTVEAGPPDPDESAVLLEAIGPVHQNRFIRQERQQQQQQQQRSEELLAERKPGPLEARERRPSPGEMRDQSPKGRESREERLSPRETRERRLGIGGAQELSLRPLEARDWRQSPGEVGDRSSRLSEAWKWRLSPGETPERSLRLAESREQSPRRKEVESRLSPGESAYQKLGLTEAHKWRPDSRESQEQSLVQLEATEWRLRSGEERQDYSEECGRKEEWPVPGVAPKETAELSETLTREAQGNSSAGVEAAEQRPVEDGERGMKPTEGWKWTLNSGKAREWTPRDIEAQTQKPEPPESAEKLLESPGVEAGEGEAEKEEAGAQGRPLRALQNCCSVPSPLPPEDAGTGGLRQQEEEAVELQPPPPAPLSPPPPAPTAPQPPGDPLMSRLFYGVKAGPGVGAPRRSGHTFTVNPRRSVPPATPATPTSPATVDAAVPGAGKKRYPTAEEILVLGGYLRLSRSCLAKGSPERHHKQLKISFSETALETTYQYPSESSVLEELGPEPEVPSAPNPPAAQPDDEEDEEELLLLQPELQGGLRTKALIVDESCRR
Turning to B1, the binding entry was “binds”.

B2: SEPT10 (protein, UniProt Q9P0V9 1-454)
chain: MASSEVARHLLFQSHMATKTTCMSSQGSDDEQIKRENIRSLTMSGHVGFESLPDQLVNRSIQQGFCFNILCVGETGIGKSTLIDTLFNTNFEDYESSHFCPNVKLKAQTYELQESNVQLKLTIVNTVGFGDQINKEESYQPIVDYIDAQFEAYLQEELKIKRSLFTYHDSRIHVCLYFISPTGHSLKTLDLLTMKNLDSKVNIIPVIAKADTVSKTELQKFKIKLMSELVSNGVQIYQFPTDDDTIAKVNAAMNGQLPFAVVGSMDEVKVGNKMVKARQYPWGVVQVENENHCDFVKLREMLICTNMEDLREQTHTRHYELYRRCKLEEMGFTDVGPENKPVSVQETYEAKRHEFHGERQRKEEEMKQMFVQRVKEKEAILKEAERELQAKFEHLKRLHQEERMKLEEKRRLLEEEIIAFSKKKATSEIFHSQSFLATGSNLRKDKDRKNSNFL
On to B2, for which the binding result is given as “binds”.

B3: SEPT11 (protein, UniProt Q9NVA2 1-429)
chain: MAVAVGRPSNEELRNLSLSGHVGFDSLPDQLVNKSTSQGFCFNILCVGETGIGKSTLMDTLFNTKFESDPATHNEPGVRLKARSYELQESNVRLKLTIVDTVGFGDQINKDDSYKPIVEYIDAQFEAYLQEELKIKRSLFNYHDTRIHACLYFIAPTGHSLKSLDLVTMKKLDSKVNIIPIIAKADTIAKNELHKFKSKIMSELVSNGVQIYQFPTDEETVAEINATMSVHLPFAVVGSTEEVKIGNKMAKARQYPWGVVQVENENHCDFVKLREMLIRVNMEDLREQTHTRHYELYRRCKLEEMGFKDTDPDSKPFSLQETYEAKRNEFLGELQKKEEEMRQMFVMRVKEKEAELKEAEKELHEKFDLLKRTHQEEKKKVEDKKKELEEEVNNFQKKKAAAQLLQSQAQQSGAQQTKKDKDKKNASFT
Consider B3, for which the binding entry is “binds”.

B4: catenin δ-1 (protein, UniProt O60716 1-968)
chain: MDDSEVESTASILASVKEQEAQFEKLTRALEEERRHVSAQLERVRVSPQDANPLMANGTLTRRHQNGRFVGDADLERQKFSDLKLNGPQDHSHLLYSTIPRMQEPGQIVETYTEEDPEGAMSVVSVETSDDGTTRRTETTVKKVVKTVTTRTVQPVAMGPDGLPVDASSVSNNYIQTLGRDFRKNGNGGPGPYVGQAGTATLPRNFHYPPDGYSRHYEDGYPGGSDNYGSLSRVTRIEERYRPSMEGYRAPSRQDVYGPQPQVRVGGSSVDLHRFHPEPYGLEDDQRSMGYDDLDYGMMSDYGTARRTGTPSDPRRRLRSYEDMIGEEVPSDQYYWAPLAQHERGSLASLDSLRKGGPPPPNWRQPELPEVIAMLGFRLDAVKSNAAAYLQHLCYRNDKVKTDVRKLKGIPVLVGLLDHPKKEVHLGACGALKNISFGRDQDNKIAIKNCDGVPALVRLLRKARDMDLTEVITGTLWNLSSHDSIKMEIVDHALHALTDEVIIPHSGWEREPNEDCKPRHIEWESVLTNTAGCLRNVSSERSEARRKLRECDGLVDALIFIVQAEIGQKDSDSKLVENCVCLLRNLSYQVHREIPQAERYQEAAPNVANNTGPHAASCFGAKKGKDEWFSRGKKPIEDPANDTVDFPKRTSPARGYELLFQPEVVRIYISLLKESKTPAILEASAGAIQNLCAGRWTYGRYIRSALRQEKALSAIADLLTNEHERVVKAASGALRNLAVDARNKELIGKHAIPNLVKNLPGGQQNSSWNFSEDTVISILNTINEVIAENLEAAKKLRETQGIEKLVLINKSGNRSEKEVRAAALVLQTIWGYKELRKPLEKEGWKKSDFQVNLNNASRSQSSHSYDDSTLPLIDRNQKSDKKPDREEIQMSNMGSNTKSLDNNYSTPNERGDHNRTLDRSGDLGDMEPLKGTTPLMQDEGQESLEEELDVLVLDDEGGQVSYPSMQKI
Regarding B4, the binding result is “binds”.

B5: CD59 (protein, UniProt P13987 26-102)
chain: LQCYNCPNPTADCKTAVNCSSDFDACLITKAGLQVYNKCWKFEHCNFNDVTTRLRENELTYYCCKKDLCNFNEQLEN
Turning to B5, the binding entry is reported as “binds”.

B6: palladin (protein, UniProt Q8WX93 1-1383)
chain: MSGTSSHESFYDSLSDMQEESKNTDFFPGLSAFLSQEEINKSLDLARRAIADSETEDFDSEKEISQIFSTSPASLCEHPSHKETKLGEHASRRPQDNRSTPVQPLAEKQTKSISSPVSKRKPAMSPLLTRPSYIRSLRKAEKRGAKTPSTNVKPKTPHQRKGGPQSQLCDKAANLIEELTSIFKAAKPRNRSPNGESSSPDSGYLSPKNQPSALLSASASQSPMEDQGEMEREVKSPGARHCYQDNQDLAVPHNRKSHPQPHSALHFPAAPRFIQKLRSQEVAEGSRVYLECRVTGNPTPRVRWFCEGKELHNTPDIQIHCEGGDLHTLIIAEAFEDDTGRYTCLATNPSGSDTTSAEVFIEGASSTDSDSESLAFKSRAGAMPQAQKKTTSVSLTIGSSSPKTGVTTAVIQPLSVPVQQVHSPTSYLCRPDGTTTAYFPPVFTKELQNTAVAEGQVVVLECRVRGAPPLQVQWFRQGSEIQDSPDFRILQKKPRSTAEPEEICTLVIAETFPEDAGIFTCSARNDYGSATSTAQLVVTSANTENCSYESMGESNNDHFQHFPPPPPILETSSLELASKKPSEIQQVNNPELGLSRAALQMQFNAAERETNGVHPSRGVNGLINGKANSNKSLPTPAVLLSPTKEPPPLLAKPKLDPLKLQQLQNQIRLEQEAGARQPPPAPRSAPPSPPFPPPPAFPELAACTPPASPEPMSALASRSAPAMQSSGSFNYARPKQFIAAQNLGPASGHGTPASSPSSSSLPSPMSPTPRQFGRAPVPPFAQPFGAEPEAPWGSSSPSPPPPPPPVFSPTAAFPVPDVFPLPPPPPPLPSPGQASHCSSPATRFGHSQTPAAFLSALLPSQPPPAAVNALGLPKGVTPAGFPKKASRTARIASDEEIQGTKDAVIQDLERKLRFKEDLLNNGQPRLTYEERMARRLLGADSATVFNIQEPEEETANQEYKVSSCEQRLISEIEYRLERSPVDESGDEVQYGDVPVENGMAPFFEMKLKHYKIFEGMPVTFTCRVAGNPKPKIYWFKDGKQISPKSDHYTIQRDLDGTCSLHTTASTLDDDGNYTIMAANPQGRISCTGRLMVQAVNQRGRSPRSPSGHPHVRRPRSRSRDSGDENEPIQERFFRPHFLQAPGDLTVQEGKLCRMDCKVSGLPTPDLSWQLDGKPVRPDSAHKMLVRENGVHSLIIEPVTSRDAGIYTCIATNRAGQNSFSLELVVAAKEAHKPPVFIEKLQNTGVADGYPVRLECRVLGVPPPQIFWKKENESLTHSTDRVSMHQDNHGYICLLIQGATKEDAGWYTVSAKNEAGIVSCTARLDVYTQWHQQSQSTKPKKVRPSASRYAALSDQGLDIKAAFQPEANPSHLTLNTALVESEDL
B6: the binding result is recorded as “binds”.
